From publication PMC5388395
Where two headings read alike, the source gives them in different places. These are yes or no findings as the source states them, for the method shown. Binding seen in cells or lysates may run through a third protein. Some entries that bind do so weakly or less than the wild type. For some of these results: Sequences can lack the tags named with a protein.

Protein sequences, listed by entry. Tags and fused reporters are not part of them.
UniProt Q03330: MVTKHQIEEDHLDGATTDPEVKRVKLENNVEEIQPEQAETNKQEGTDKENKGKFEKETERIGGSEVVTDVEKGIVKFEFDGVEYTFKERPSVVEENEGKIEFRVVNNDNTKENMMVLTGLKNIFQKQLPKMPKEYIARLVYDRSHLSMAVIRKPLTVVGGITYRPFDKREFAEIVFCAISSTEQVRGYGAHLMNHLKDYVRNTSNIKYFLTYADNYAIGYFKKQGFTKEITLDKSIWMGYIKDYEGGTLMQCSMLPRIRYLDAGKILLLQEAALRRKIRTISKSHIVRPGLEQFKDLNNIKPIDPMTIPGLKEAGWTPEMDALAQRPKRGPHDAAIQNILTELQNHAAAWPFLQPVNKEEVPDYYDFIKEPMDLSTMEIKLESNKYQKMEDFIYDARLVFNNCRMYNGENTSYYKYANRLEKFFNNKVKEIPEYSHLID

T1: Ada2-TAP (S. cerevisiae) (UniProt Q02336)
T1 sequence: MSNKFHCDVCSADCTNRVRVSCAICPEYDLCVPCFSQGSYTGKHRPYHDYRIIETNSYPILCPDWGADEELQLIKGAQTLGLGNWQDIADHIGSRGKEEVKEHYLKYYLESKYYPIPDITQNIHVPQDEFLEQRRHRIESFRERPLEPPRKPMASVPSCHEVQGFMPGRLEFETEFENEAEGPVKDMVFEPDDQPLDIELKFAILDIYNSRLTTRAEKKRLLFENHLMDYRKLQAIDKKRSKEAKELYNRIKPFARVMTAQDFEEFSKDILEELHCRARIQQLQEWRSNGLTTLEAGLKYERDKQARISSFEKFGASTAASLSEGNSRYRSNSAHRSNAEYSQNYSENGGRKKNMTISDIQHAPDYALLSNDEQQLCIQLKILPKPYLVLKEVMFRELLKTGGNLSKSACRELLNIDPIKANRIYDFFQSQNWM

T2: Spt20-TAP (S. cerevisiae) (UniProt P50875)
T2 sequence: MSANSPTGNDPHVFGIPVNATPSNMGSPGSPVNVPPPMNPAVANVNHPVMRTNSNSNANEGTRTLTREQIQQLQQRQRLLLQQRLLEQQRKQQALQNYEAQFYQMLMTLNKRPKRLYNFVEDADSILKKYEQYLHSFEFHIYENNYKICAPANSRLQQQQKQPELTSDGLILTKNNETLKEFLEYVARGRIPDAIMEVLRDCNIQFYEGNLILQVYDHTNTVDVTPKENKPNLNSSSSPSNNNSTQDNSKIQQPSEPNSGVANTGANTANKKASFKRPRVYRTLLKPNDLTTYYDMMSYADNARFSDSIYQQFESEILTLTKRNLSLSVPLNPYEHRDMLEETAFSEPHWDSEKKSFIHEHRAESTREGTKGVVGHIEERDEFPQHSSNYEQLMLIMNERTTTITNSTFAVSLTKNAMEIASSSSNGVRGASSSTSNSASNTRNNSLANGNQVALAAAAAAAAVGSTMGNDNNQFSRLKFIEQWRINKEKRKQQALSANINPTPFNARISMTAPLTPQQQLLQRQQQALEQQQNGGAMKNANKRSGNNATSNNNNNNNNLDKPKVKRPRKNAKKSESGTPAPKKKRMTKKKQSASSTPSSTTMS

T3: Ada1-TAP (S. cerevisiae) (UniProt Q12060)
T3 sequence: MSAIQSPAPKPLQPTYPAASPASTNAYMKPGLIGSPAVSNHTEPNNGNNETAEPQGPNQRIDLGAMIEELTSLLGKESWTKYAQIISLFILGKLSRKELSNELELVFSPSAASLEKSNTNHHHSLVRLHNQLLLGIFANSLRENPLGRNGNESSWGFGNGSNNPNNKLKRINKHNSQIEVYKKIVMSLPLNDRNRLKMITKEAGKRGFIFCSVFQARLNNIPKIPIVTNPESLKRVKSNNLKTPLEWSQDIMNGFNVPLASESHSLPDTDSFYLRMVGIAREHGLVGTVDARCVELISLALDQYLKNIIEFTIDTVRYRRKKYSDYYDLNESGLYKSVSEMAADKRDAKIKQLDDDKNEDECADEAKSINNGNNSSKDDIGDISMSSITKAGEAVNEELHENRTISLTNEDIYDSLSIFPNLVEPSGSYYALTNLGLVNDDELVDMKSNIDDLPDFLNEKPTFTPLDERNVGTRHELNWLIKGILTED

T4: Ada3-TAP (S. cerevisiae) (UniProt P32494)
T4 sequence: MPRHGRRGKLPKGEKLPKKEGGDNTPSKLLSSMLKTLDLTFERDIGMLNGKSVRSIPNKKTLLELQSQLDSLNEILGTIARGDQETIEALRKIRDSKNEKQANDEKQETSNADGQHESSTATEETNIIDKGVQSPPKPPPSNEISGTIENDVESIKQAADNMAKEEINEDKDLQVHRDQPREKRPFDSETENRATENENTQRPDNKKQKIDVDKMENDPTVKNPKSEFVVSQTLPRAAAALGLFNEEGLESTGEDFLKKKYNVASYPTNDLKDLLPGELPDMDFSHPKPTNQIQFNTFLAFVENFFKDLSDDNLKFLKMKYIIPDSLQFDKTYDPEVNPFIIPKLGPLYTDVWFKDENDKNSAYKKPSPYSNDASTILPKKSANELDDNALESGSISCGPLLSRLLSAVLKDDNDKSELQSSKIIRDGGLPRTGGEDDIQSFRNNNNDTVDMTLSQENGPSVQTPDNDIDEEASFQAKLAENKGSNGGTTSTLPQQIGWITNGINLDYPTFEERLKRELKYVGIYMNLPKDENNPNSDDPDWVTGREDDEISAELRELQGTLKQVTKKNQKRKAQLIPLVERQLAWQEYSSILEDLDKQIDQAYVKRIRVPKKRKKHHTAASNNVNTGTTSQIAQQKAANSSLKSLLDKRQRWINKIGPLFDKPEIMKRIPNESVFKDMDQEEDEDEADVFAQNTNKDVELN

T5: Sgf29-TAP (S. cerevisiae) (UniProt P25554)
T5 sequence: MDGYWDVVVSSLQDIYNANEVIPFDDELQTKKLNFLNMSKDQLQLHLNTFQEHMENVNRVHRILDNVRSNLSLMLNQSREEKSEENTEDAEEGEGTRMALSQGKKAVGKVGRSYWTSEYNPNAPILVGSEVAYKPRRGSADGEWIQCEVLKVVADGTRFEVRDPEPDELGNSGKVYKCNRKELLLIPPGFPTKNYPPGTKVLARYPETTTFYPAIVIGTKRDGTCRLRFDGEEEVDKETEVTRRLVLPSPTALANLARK


Key:
[1] = target: T1, Ada2-TAP (S. cerevisiae); test: co-IP; purification of Ada2, Spt20 or Gcn5 from deletion strains (spt20Δ, ada2Δ, sgf73Δ, gcn5Δ), Supplementary Figure S3; tags and read-out not shown
[2] = target: T2, Spt20-TAP (S. cerevisiae); test: as above
[3] = target: T3, Ada1-TAP (S. cerevisiae); test: co-IP; single affinity purification step of the TAP-tagged subunit on IgG sepharose, TEV elution, 1-20% sucrose gradient, fractions blotted with anti-CBP, anti-Taf9 and anti-Spt3; WT and not5Δ cells (Ada1-TAP: WT and ada2Δ)
[4] = target: T4, Ada3-TAP (S. cerevisiae); test: as above
[5] = target: T5, Sgf29-TAP (S. cerevisiae); test: as above
[6] = target: T2, Spt20-TAP (S. cerevisiae); test: as above
[7] = target: Gcn5-TAP (S. cerevisiae) (UniProt Q03330); test: co-IP; Gcn5-TAP purified by a single affinity step from cells expressing Spt20-MYC, TEV elution, western blot with MYC and CBP antibodies; WT, not5Δ and tdh3Δ cells
[8] = target: T1, Ada2-TAP (S. cerevisiae); test: co-IP; purification of Ada2, Spt20 or Gcn5 from deletion strains (spt20Δ, ada2Δ, sgf73Δ, gcn5Δ), Supplementary Figure S3; tags and read-out not shown; remark: listed apart in the source
[9] = target: Gcn5-TAP (S. cerevisiae) (UniProt Q03330); test: as above

Row | Molecule | binding [3] | binding [4] | binding [5] | binding [6] | other results
1 | Gcn5 (from UniProt Q03330 1-439) | – | – | – | – | binding [1]: binds; binding [2]: binds
2 | Taf9 (protein, UniProt Q05027 1-157) MNGGGKNVLNKNSVGSVSEVGPDSTQEETPRDVRLLHLLLASQSIHQYEDQVPLQLMDFAHRYTQGVLKDALVYNDYAGSGNSAGSGLGVEDIRLAIAARTQYQFKPTAPKELMLQLAAERNKKALPQVMGTWGVRLPPEKYCLTAKEWDLEDPKSM | binds | binds | binds | binds | –
3 | Spt20-MYC (protein, UniProt P50875 1-604) MSANSPTGNDPHVFGIPVNATPSNMGSPGSPVNVPPPMNPAVANVNHPVMRTNSNSNANEGTRTLTREQIQQLQQRQRLLLQQRLLEQQRKQQALQNYEAQFYQMLMTLNKRPKRLYNFVEDADSILKKYEQYLHSFEFHIYENNYKICAPANSRLQQQQKQPELTSDGLILTKNNETLKEFLEYVARGRIPDAIMEVLRDCNIQFYEGNLILQVYDHTNTVDVTPKENKPNLNSSSSPSNNNSTQDNSKIQQPSEPNSGVANTGANTANKKASFKRPRVYRTLLKPNDLTTYYDMMSYADNARFSDSIYQQFESEILTLTKRNLSLSVPLNPYEHRDMLEETAFSEPHWDSEKKSFIHEHRAESTREGTKGVVGHIEERDEFPQHSSNYEQLMLIMNERTTTITNSTFAVSLTKNAMEIASSSSNGVRGASSSTSNSASNTRNNSLANGNQVALAAAAAAAAVGSTMGNDNNQFSRLKFIEQWRINKEKRKQQALSANINPTPFNARISMTAPLTPQQQLLQRQQQALEQQQNGGAMKNANKRSGNNATSNNNNNNNNLDKPKVKRPRKNAKKSESGTPAPKKKRMTKKKQSASSTPSSTTMS | – | – | – | – | binding [7]: binds
4 | Spt20 (protein, UniProt P50875 1-604) MSANSPTGNDPHVFGIPVNATPSNMGSPGSPVNVPPPMNPAVANVNHPVMRTNSNSNANEGTRTLTREQIQQLQQRQRLLLQQRLLEQQRKQQALQNYEAQFYQMLMTLNKRPKRLYNFVEDADSILKKYEQYLHSFEFHIYENNYKICAPANSRLQQQQKQPELTSDGLILTKNNETLKEFLEYVARGRIPDAIMEVLRDCNIQFYEGNLILQVYDHTNTVDVTPKENKPNLNSSSSPSNNNSTQDNSKIQQPSEPNSGVANTGANTANKKASFKRPRVYRTLLKPNDLTTYYDMMSYADNARFSDSIYQQFESEILTLTKRNLSLSVPLNPYEHRDMLEETAFSEPHWDSEKKSFIHEHRAESTREGTKGVVGHIEERDEFPQHSSNYEQLMLIMNERTTTITNSTFAVSLTKNAMEIASSSSNGVRGASSSTSNSASNTRNNSLANGNQVALAAAAAAAAVGSTMGNDNNQFSRLKFIEQWRINKEKRKQQALSANINPTPFNARISMTAPLTPQQQLLQRQQQALEQQQNGGAMKNANKRSGNNATSNNNNNNNNLDKPKVKRPRKNAKKSESGTPAPKKKRMTKKKQSASSTPSSTTMS | – | – | – | – | binding [8]: binds; binding [9]: binds
5 | Spt3 (protein, UniProt P06844 1-337) MMDKHKYRVEIQQMMFVSGEINDPPVETTSLIEDIVRGQVIEILLQSNKTAHLRGSRSILPEDVIFLIRHDKAKVNRLRTYLSWKDLRKNAKDQDASAGVASGTGNPGAGGEDDLKKAGGGEKDEKDGGNMMKVKKSQIKLPWELQFMFNEHPLENNDDNDDMDEDEREANIVTLKRLKMADDRTRNMTKEEYVHWSDCRQASFTFRKNKRFKDWSGISQLTEGKPHDDVIDILGFLTFEIVCSLTETALKIKQREQVLQTQKDKSQQSSQDNTNFEFASSTLHRKKRLFDGPENVINPLKPRHIEEAWRVLQTIDMRHRALTNFKGGRLSSKPIIM | binds | binds | binds | binds | –
